According to PubChem BioAssay AID540275 (National Center for Advancing Translational Sciences (NCATS), 2011):
The campaign covered roughly 320,000 compounds. About 620 (0.19%) were called active. Inconclusive results, whose numbers are uncertain, are shown with a selection of clear calls. Cut-off read from the data, not from the text of the source: active = activation above about 80%; inconclusive = between about 30% and that limit; inactive = weaker than that.

Sequences of proteins named here, by UniProt entry; tags and fusion partners are left off.
UniProt Q8NER1, whole entry, looked up: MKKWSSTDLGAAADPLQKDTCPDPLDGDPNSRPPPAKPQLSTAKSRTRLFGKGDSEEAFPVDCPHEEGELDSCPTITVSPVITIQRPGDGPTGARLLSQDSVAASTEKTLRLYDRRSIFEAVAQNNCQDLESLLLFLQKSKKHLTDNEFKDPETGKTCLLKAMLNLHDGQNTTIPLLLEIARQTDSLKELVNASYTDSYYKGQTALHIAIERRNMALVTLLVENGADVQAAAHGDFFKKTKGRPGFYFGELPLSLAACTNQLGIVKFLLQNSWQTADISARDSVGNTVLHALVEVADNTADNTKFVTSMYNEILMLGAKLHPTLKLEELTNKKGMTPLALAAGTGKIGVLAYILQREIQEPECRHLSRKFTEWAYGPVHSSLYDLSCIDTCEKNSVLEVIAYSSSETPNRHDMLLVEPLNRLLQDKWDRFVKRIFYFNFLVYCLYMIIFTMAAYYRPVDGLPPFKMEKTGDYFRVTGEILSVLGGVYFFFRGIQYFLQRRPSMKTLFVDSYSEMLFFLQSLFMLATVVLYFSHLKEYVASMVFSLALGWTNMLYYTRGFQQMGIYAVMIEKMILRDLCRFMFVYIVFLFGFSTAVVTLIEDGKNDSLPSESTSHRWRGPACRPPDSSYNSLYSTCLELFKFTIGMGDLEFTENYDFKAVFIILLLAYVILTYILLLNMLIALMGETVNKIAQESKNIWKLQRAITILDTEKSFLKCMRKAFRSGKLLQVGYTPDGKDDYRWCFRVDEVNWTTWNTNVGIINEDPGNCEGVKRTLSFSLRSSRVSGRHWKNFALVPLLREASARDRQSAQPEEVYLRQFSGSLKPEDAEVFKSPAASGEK

The compounds below were run against Transient receptor potential cation channel subfamily V member 1 (Homo sapiens) (UniProt Q8NER1) (assay: HTS Assay for Compounds that Act as Agonists of the Vanilloid Receptor 1). Conditions: TRPV1-expressing cells, Fluo-8 calcium influx, agonist mode; at 8.33 µM, hits give high values.
Procedure, shortened: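 Fluo-8 calcium influx in TRPV1-expressing cells, kinetic read (ex 480/em 520 nm). Compound added and read 3 min for agonist activity, followed by capsaicin at EC20 final and 2 min further read for enhancement.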
Note: 0% is about no effect.

**Q.** For `O=C(N/N=C/c1cccnc1)c1ccccc1OCc1ccc(Cl)cc1`, which activation is on record?
**A.** inconclusive: 44.8%

**Q.** With `Cc1nn2c(N3CCN(CCO)CC3)c3c(nc2c1-c1ccccc1)CCCC3` as the compound, how does the activation read?
**A.** inconclusive: 34.3%

**Q.** `Cc1ccc(C)c(C(=O)C(C)Sc2nc3nn(-c4ccccc4)c(=O)c-3c3n2CCCCC3)c1` (centres undefined) was tested. Which activation did it give?
**A.** inactive: 0.395%

**Q.** How did the activation turn out when `O=C(NCCNc1ccc([N+](=O)[O-])cc1C(F)(F)F)c1ccc(F)cc1` was run?
**A.** inconclusive: 67.7%

**Q.** How did the activation turn out when `COc1ccc2c(C)c(CC(=O)N3CCN(C(=O)C4COc5ccccc5O4)CC3)c(=O)oc2c1` (centres undefined) was run?
**A.** inconclusive: 38.3%

**Q.** How did the activation turn out when `Cc1cc(OCC(=O)Nc2cccc(S(=O)(=O)NC3=NCCCCC3)c2)ccc1Cl` was run?
**A.** inactive: 9.9%

**Q.** With `CN1CCN(C(=S)NC(=O)c2ccc(Cl)cc2)CC1` as the compound, how does the activation read?
**A.** inactive: 1.01%

**Q.** Which activation does the source give for `O=C(CCSc1ccccc1)Nc1ccc(S(=O)(=O)N2CCOCC2)cc1` here?
**A.** inconclusive: 42.6%

**Q.** For `O=C(c1ccc(Cl)cc1)N1CCN(c2ccc(F)cc2)CC1`, which activation is on record?
**A.** inconclusive: 46.1%

**Q.** `Cc1ccc(C(=O)Nc2ccc(C(F)(F)F)n(C)c2=O)cc1` was tested. Which activation did it give?
**A.** inconclusive: 37%

**Q.** With `COc1ccccc1NC(=O)c1ccc2c(c1)C(=O)N(Cc1ccco1)C2=O` as the compound, how does the activation read?
**A.** inactive: -1.68%

**Q.** Which activation does the source give for `CCOc1ccc(/C=C2\SC(N3CCCCC3)=NC2=O)cc1` here?
**A.** inconclusive: 60.3%

**Q.** For `CN(C)/C=C/c1onc(-c2c(Cl)cccc2Cl)c1C#N`, which activation is on record?
**A.** inactive: 18.9%

**Q.** `O=S(=O)(c1ccccc1F)N1CCN(C(=S)NCc2ccccc2)CC1` was tested. Which activation did it give?
**A.** inconclusive: 31.7%

**Q.** How did the activation turn out when `COc1cc(Cl)cc(/C=C/c2ccc3cccc(O)c3n2)c1OC` was run?
**A.** inactive: 3.8%

**Q.** `COC(=O)CNC(c1ccccc1)c1cc(C)ccc1NC(=O)CNC(=O)OCc1ccccc1` (centres undefined) was tested. Which activation did it give?
**A.** inconclusive: 62.4%

**Q.** `CCCCC(=O)Nc1ccc(C(=O)NNC(=O)c2ccc(C)c(Br)c2)cc1` was tested. Which activation did it give?
**A.** inactive: -1.59%

**Q.** How did the activation turn out when `CCOC(=O)c1nc(Nc2cccc(C)c2)c2ccccc2n1` was run?
**A.** inconclusive: 33.5%

**Q.** `Cc1cccc(-c2ccc3ncnc(NCc4cccs4)c3c2)c1` was tested. Which activation did it give?
**A.** inconclusive: 33.4%

**Q.** Which activation does the source give for `CC(CCc1ccccc1)NC(=O)COC(=O)c1cccc2ccccc12` (centres undefined) here?
**A.** inconclusive: 41%

**Q.** For `CCC(C)c1ccc(NC(=O)c2[nH]c(C)c(C(C)=O)c2C)cc1` (centres undefined), which activation is on record?
**A.** inconclusive: 74.3%

**Q.** How did the activation turn out when `O=C(CSCc1ccc(Cl)cc1)NCCSCc1ccco1` was run?
**A.** inactive: 26.2%

**Q.** With `Cc1cc(C(=O)N2CCCC(Nc3ccc(F)cc3)C2)c(C)o1` (centres undefined) as the compound, how does the activation read?
**A.** inconclusive: 65.9%

**Q.** For `Cc1cc(NC(c2cccnc2)c2ccc3cccnc3c2O)no1` (centres undefined), which activation is on record?
**A.** inactive: -0.326%

**Q.** Which activation does the source give for `COc1cccc(-c2cc(C(F)(F)F)nc(-n3cc(C)cn3)n2)c1` here?
**A.** inconclusive: 41.8%

**Q.** For `COc1ccc(NC(=O)NCc2ccc3c(c2)OCO3)cc1`, which activation is on record?
**A.** inconclusive: 35.5%

**Q.** Which activation does the source give for `Nc1cnccc1C(=O)O` here?
**A.** inactive: 6.47%

**Q.** `O=C1c2ccccc2C(=O)N1CCc1csc(-c2cccc(Cl)c2)n1` was tested. Which activation did it give?
**A.** inconclusive: 30.6%

**Q.** With `O=C(CSc1nnnn1C1CCCCC1)NCCc1ccccc1` as the compound, how does the activation read?
**A.** inconclusive: 37.7%

**Q.** Which activation does the source give for `CC1CCN(S(=O)(=O)c2ccc3nc(-c4ccccn4)cc(C(=O)NCCN(C)Cc4ccccc4)c3c2)CC1` here?
**A.** inactive: -0.4%

**Q.** With `Cc1cc2ccc3ccccc3c2cc1CN(C)C` as the compound, how does the activation read?
**A.** inactive: 7.82%

**Q.** With `Cc1cccc(C)c1OCCNC(=O)CCC(=O)c1ccccc1` as the compound, how does the activation read?
**A.** inactive: 25.1%

**Q.** `O=C(Nc1cccc(Cl)c1)C1COc2ccccc2O1` (centres undefined) was tested. Which activation did it give?
**A.** inconclusive: 49.4%

**Q.** For `CCN(CC)S(=O)(=O)c1ccc(C(=O)Nc2ccc3c(c2)OCO3)cc1`, which activation is on record?
**A.** inconclusive: 66.9%

**Q.** `CCOC(=O)C1(CCCc2ccccc2)CCN(C(=O)CCOC)CC1` was tested. Which activation did it give?
**A.** inconclusive: 33.1%

**Q.** For `COCCCNC(=O)/C(C#N)=C/c1cccc(NC(=O)c2ccccc2Cl)c1`, which activation is on record?
**A.** inconclusive: 37.4%

**Q.** For `Cc1ccc2nc(SCC(=O)Nc3cc(C(F)(F)F)ccc3N3CCOCC3)[nH]c2c1`, which activation is on record?
**A.** inconclusive: 62.9%

**Q.** How did the activation turn out when `CS(=O)(=O)c1ccccc1COC(=O)Nc1ccc(Cl)cc1` was run?
**A.** inconclusive: 49.3%

**Q.** Which activation does the source give for `COc1cc(C(=O)N/N=C/c2sc(N3CCOCC3)nc2-c2ccccc2)cc(OC)c1OC` here?
**A.** inactive: 1.67%

**Q.** With `O=C(N/N=C/c1ccccc1O)c1ccc2c(c1)OCO2` as the compound, how does the activation read?
**A.** inconclusive: 53.4%

**Q.** For `Cn1cc(CNCCCn2ncc3ccccc32)c(-c2ccccc2F)n1`, which activation is on record?
**A.** inactive: 3.76%

**Q.** `CCc1nnc(N2C(=N)SCC2=O)s1` was tested. Which activation did it give?
**A.** inactive: 1.24%

**Q.** With `Cn1cc(CCC(=O)N2CCCC(C(=O)c3ccc(C(C)(C)C)cc3)C2)cn1` (centres undefined) as the compound, how does the activation read?
**A.** inconclusive: 34.2%

**Q.** `COc1ccc(C(C(=O)NC2CCCC2)N(C(=O)c2ccoc2C)c2cc(C)cc(C)c2)cc1` (centres undefined) was tested. Which activation did it give?
**A.** inconclusive: 43.1%

**Q.** For `Cc1ccc(C(=O)NC(C)c2ccccc2)cc1Br` (centres undefined), which activation is on record?
**A.** inconclusive: 75.3%

**Q.** Which activation does the source give for `CN(C)S(=O)(=O)c1ccc(NC(=S)NC(=O)Cc2ccccc2)cc1` here?
**A.** inconclusive: 31.9%

**Q.** `Cc1cc(C)n(-c2nc(SCC(=O)N3CCCC3)c3c4c(sc3n2)CCCC4)n1` was tested. Which activation did it give?
**A.** inconclusive: 45.8%

**Q.** Which activation does the source give for `Nc1c(-c2ccc(Cl)cc2)nnn1-c1ccccc1` here?
**A.** inconclusive: 59.4%

**Q.** How did the activation turn out when `CC(C)(C)c1ccc(/C=N/NC(=O)C2CCCC2)cc1` was run?
**A.** inconclusive: 43.1%

**Q.** Which activation does the source give for `Cc1cccc(N(Cc2ccccc2)C(=O)CSC(C)C(=O)Nc2cc(C)on2)c1` (centres undefined) here?
**A.** inconclusive: 32.6%

**Q.** For `CCOC(=O)N1CC(=O)Nc2ccc(Br)cc2C1c1ccccc1` (centres undefined), which activation is on record?
**A.** inconclusive: 41.4%

**Q.** `Cc1cccc(Cl)c1OCCCCn1ccnc1` was tested. Which activation did it give?
**A.** inactive: 2.42%

**Q.** `CCCn1c(COc2ccccc2)nc2ccccc21` was tested. Which activation did it give?
**A.** inconclusive: 36.6%

**Q.** Which activation does the source give for `O=C(Nc1ccc(Br)cc1)c1cc2ccccn2n1` here?
**A.** active: 84.8%

**Q.** How did the activation turn out when `O=C(Nc1cccc(C(F)(F)F)c1)c1sc(Cl)nc1C(F)(F)F` was run?
**A.** inactive: -0.848%

**Q.** For `COc1ccccc1C(=O)C1CCCN(C(=O)CCC(=O)c2ccccc2)C1` (centres undefined), which activation is on record?
**A.** inconclusive: 39.4%

**Q.** Which activation does the source give for `CC(C)(C)c1ccc(CN2C3=NCCCN3c3ccccc32)cc1` here?
**A.** inactive: 0.679%

**Q.** `Cc1nc(-c2ccccc2)nc2[nH]c(C(C)C)cc(=O)c12` was tested. Which activation did it give?
**A.** inconclusive: 42.2%

**Q.** `CCc1ccc(Nc2nnc(SCC(=O)c3ccc4c(c3)NC(=O)CO4)s2)cc1` was tested. Which activation did it give?
**A.** inconclusive: 61.1%
